Assay results from PubChem BioAssay AID624291 (National Center for Advancing Translational Sciences (NCATS), 2012).
The whole screen tested about 350,000 compounds, of which about 220 (0.063%) were called active. The inconclusive results got no clear call from the source; some entries with a clear call stand among them for comparison. The call rests on the fitted dose curve; in most records, active means well fitted activation curve with a large enough effect; inconclusive means small, poorly fitted or top-dose-only effect; inactive means no such curve, though single readings can be large or run the other way. Where the call is inconclusive, the potency comes from a doubtful curve fit.

Test: qHTS for Activators of Integrin-Mediated Alleviation for Muscular Dystrophy; further: nearly all actives have a fitted effect of over 60% in size;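 on activation: 100% = response of the positive control SU9516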
Conditions: alpha7betagal myoblasts, beta-gal FDG fluorescence, 48 h; activation: at 38.3 µM (top of the series)
Method in brief: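 Alpha7betagal+/- myoblasts (passage 13) were plated 16-24 hr, then exposed to compounds (1:260 dilution of DMSO stock) for 48 hours at 37C. After MPER lysis, β-galactosidase reporter activity was read as FDG fluorescence (ex 480/em 540) after 30 minutes.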
Potency means the concentration at half of the fitted maximal effect.

| Structure (SMILES) | Potency | activation |
| --- | --- | --- |
| CSc1ccccc1NC(=O)c1cccs1 | inactive | – |
| Cc1cccc2c(N=Nc3ccc(S(=O)(=O)Nc4cccc(Cl)c4)cc3[N+](=O)[O-])c(O)[nH]c12 | inconclusive: 2.82 µM [activator, partial curve, poor fit] | – |
| COc1ccc2cc(Br)ccc2c1CC(=O)NCC1CCCO1 (stereo not given) | inconclusive: 28.2 µM [activator, single point] | – |
| Cc1cc(-c2nn(-c3ccccc3F)cc2CN2CCC(C(N)=O)CC2)c(C)s1 | inconclusive: 2.82 µM [activator, single point] | – |
| O=C(Nc1ncccn1)c1ccc([N+](=O)[O-])cc1 | inactive | – |
| O=C(NC(=S)Nc1ccc(S(=O)(=O)N2CCCC2)cc1)C1CCC1 | inactive | – |
| O=C(O)COc1ccc(/C=N/NC(=O)c2ccccc2Br)cc1 | inconclusive: 5.01 µM [activator, single point] | – |
| COc1cc(C(=O)NCC2(c3ccccc3)CCCC2)ccc1OC(C)C | inconclusive: 3.55 µM [activator, single point] | – |
| COc1ccc(CNC(=O)Cn2nnc3ccccc3c2=O)cc1 | inconclusive: 2.82 µM [activator, single point] | – |
| CCc1sc(C(=O)N2CCN(c3ccc(F)cc3)CC2)cc1C | inconclusive: 2.24 µM [activator, full curve, poor fit] | – |
| COc1cccc(COC(=O)C2CCN(C(=O)c3ccccc3C)CC2)c1OC | inconclusive: 28.2 µM [activator, single point] | – |
| CC(=O)NC(CCS(C)(=O)=O)C(=O)Nc1nc(C)cs1 (stereo not given) | inconclusive: 2.51 µM [activator, partial curve, poor fit] | – |
| COc1ccccc1C1CN(c2ccc(F)cc2F)N=C1c1cccs1 (stereo not given) | inconclusive: 1.58 µM [activator, full curve, poor fit] | – |
| Cc1cc(-c2ccccc2)nc(Oc2cccc(C(F)(F)F)c2)c1S(C)(=O)=O | inactive | – |
| Cn1c(Cn2cnc(Cl)c2Cl)nc2ccccc21 | inactive | – |
| CC(=O)Nc1ccc(-c2cn3c(n2)SCC3)cc1 | inconclusive: 2 µM [activator, partial curve, poor fit] | – |
| CCOc1ccc(C(=O)Nc2ccc(C(F)(F)F)n(C)c2=O)cc1 | inactive | – |
| Cc1ccc(-c2nnc(SCCC(=O)N3CCOCC3)o2)cc1 | inactive | – |
| CCCCNC(=O)C1CCCN(S(=O)(=O)c2ccc(-n3cnnn3)cc2)C1 (stereo not given) | inconclusive: 12.6 µM [activator, single point] | – |
| COc1ccc(N2C(=O)CCC(C(=O)NCCCN3CCC(C)CC3)C2c2ccc(OC)c(OC)c2)cc1 (stereo not given) | inconclusive: 28.2 µM [activator, single point] | – |
| CCOc1cccc(C(=O)Nc2ccc(S(=O)(=O)Nc3cc(C)on3)cc2)c1 | inconclusive: 15.8 µM [activator, single point] | – |
| CC(C)(C)n1cnc2cc(NCc3ccccc3O)ccc21 | inconclusive: 28.2 µM [activator, single point] | – |
| O=C(N/N=C/c1ccc(O)cc1)c1cc[n+](Cc2ccccc2)cc1 | inactive | – |
| N/C(=N\S(=O)(=O)c1cc(C(F)(F)F)cc(C(F)(F)F)c1)c1ccc(Cl)cc1 | inconclusive: 3.16 µM [activator, single point] | – |

| Structure (SMILES) | Potency | activation |
| --- | --- | --- |
| CC(=O)Oc1ccc(/C=N\NC(=O)c2cc3c(ccc4ccccc43)o2)cc1 | inconclusive: 11.2 µM [activator, single point] | – |
| Cc1cc(N2CCCCC2)n2ncc(-c3ccc(Cl)cc3)c2n1 | – | inactive: -2.76% [at 7.66 µM] |
| N/C(=N\O)c1ccc(Oc2ccccc2Cl)c([N+](=O)[O-])c1 | inconclusive: 2 µM [activator, partial curve, poor fit] | – |
| Oc1ccccc1Nc1nc(NCc2ccccc2)c2ccccc2n1 | inconclusive: 11.2 µM [activator, single point] | – |
| O=C(c1noc2c1CCCC2)N1CCOCC1 | inconclusive: 5.01 µM [activator, single point] | – |
| N#Cc1ccc(-c2ccccc2)nc1SCCN1CCOCC1 | inactive | – |
| Cc1ccc(OC(=O)c2ccc3nc(C)sc3c2)cc1 | – | inconclusive: -57.6% [activator] |
| Cc1cccc(C)c1NC(=S)N(Cc1ccccc1)Cc1cccnc1 | inactive | – |
| O=C(Nc1ccccn1)c1ccc(S(=O)(=O)N2CCCCC2)cc1 | inactive | – |
| CC(=O)c1cccc(NC(=O)N2CCCC2C(=O)Nc2cccc(C)c2C)c1 (stereo not given) | inconclusive: 5.62 µM [activator, partial curve, poor fit] | – |
| [O-]/C(=C(\C(=S)NCCN1CCOCC1)[n+]1ccccc1)c1ccc(Cl)s1 | inconclusive: 5.01 µM [activator, single point] | – |
| COc1ccc(Nc2nnc(SCC(=O)NC3CCS(=O)(=O)C3)s2)cc1 (stereo not given) | inconclusive: 22.4 µM [activator, single point] | – |
| COc1ccc(CCNC(=O)CCC(=O)Nc2ccccc2[N+](=O)[O-])cc1OC | inconclusive: 3.55 µM [activator, single point] | – |
| O=C(COC(=O)C1(c2ccccc2F)CCCC1)Nc1ncc(C(F)(F)F)cc1Cl | inconclusive: 11.2 µM [activator, single point] | – |
| CC1CN(C(=O)COC(=O)c2cc3ccccc3cc2O)CC(C)O1 (stereo not given) | inconclusive: 2.24 µM [activator, single point] | – |
| Cc1ccc(C(=O)COC(=O)CNC(=O)c2ccccc2)s1 | inconclusive: 5.62 µM [activator, single point] | – |
| CC(Nc1ccccc1)c1ccncc1 (stereo not given) | inconclusive: 2.51 µM [activator, single point] | – |
| Cc1c(C)c2c(OCC(=O)NCC(C)C)cc3c(c2oc1=O)CCC(C)(C)O3 | inconclusive: 17.8 µM [activator, single point] | – |
| Clc1ccc(C(c2nnnn2C2CCCC2)N2CCN(c3nc4ccccc4s3)CC2)cc1 (stereo not given) | inactive | – |
| O=C1NN(c2ccccc2)C(=O)/C1=C\c1ccccc1 | inconclusive: 3.16 µM [activator, single point] | – |
| Oc1c(CN2CCOCC2)cc(-c2ccccc2)cc1CN1CCOCC1 | inactive | – |
| O=C(COC(=O)c1cc[n+]([O-])cc1)Nc1cccc(Br)c1 | inconclusive: 3.16 µM [activator, single point] | – |
| C[C@H](NC(=O)c1ccc2ccccc2c1)C(=O)N1CCC2(CC1)NCCc1[nH]cnc12 | inconclusive: 28.2 µM [activator, single point] | – |
| Cc1ccccc1Nc1nnc(SCC(=O)Nc2ccccc2[N+](=O)[O-])s1 | inactive | – |

| Structure (SMILES) | Potency | activation |
| --- | --- | --- |
| CCCC(=O)C1=C(N(C)c2ccccc2)CC(C)(C)CC1=O | inconclusive: 28.2 µM [activator, single point] | – |
| Nc1c(-c2cccs2)cnn1-c1nc(-c2ccc(Cl)cc2Cl)cs1 | inconclusive: 5.01 µM [activator, full curve] | – |
| CCCCCOC(=O)C1=C(C)N(C)C(=O)NC1c1cc(Br)c(O)c(OC)c1 (stereo not given) | inactive | – |
| CCN(CC)c1ccc(NC(=O)c2cccc(F)c2)c(C)c1 | inactive | – |
| O=C(NCCCN1CCOCC1)c1cnccn1 | inconclusive: 2.51 µM [activator, partial curve, poor fit] | – |
| CCc1sc(C(=O)Nc2cccc(-n3cnnn3)c2)cc1C | inconclusive: 5.01 µM [activator, single point] | – |
| COc1ccc(C(=O)Nc2ccccc2)cc1NC(=O)c1ccc([N+](=O)[O-])cc1 | inconclusive: 2.24 µM [activator, single point] | – |
| Cc1cc(C)cc(OCC(=O)N(C)CC(=O)Nc2ccc(Cl)c(C(F)(F)F)c2)c1 | inactive | – |
| CCc1ccc(Nc2nnc(SCC(=O)Nc3cccnc3Cl)s2)cc1 | inactive | – |
| O=C(Nc1c(C(=O)N2CCCCC2)cnn1-c1ccccc1)c1ccccc1F | inconclusive: 1 µM [activator, full curve, poor fit] | – |
| FC(F)(F)c1ccccc1NC(=S)Nn1cnnc1 | inconclusive: 1.78 µM [activator, partial curve, poor fit] | – |
| COc1ccccc1N1CCN(Cc2ccco2)CC1 | – | inactive: -24.7% [at 7.66 µM] |
| CCn1cc(C(=O)NCCC(=O)NC(C)C)c(=O)c2cc3c(cc21)OCO3 | inconclusive: 2.82 µM [activator, single point] | – |
| Cc1cccc(C(=O)NC(=S)NNC(=O)COc2ccc(Cl)cc2)c1 | inconclusive: 7.08 µM [activator, single point] | – |
| O=C(Cn1cnc2ccccc2c1=O)Nc1nnc(SCc2ccccc2)s1 | inconclusive: 15.8 µM [activator, single point] | – |
| CC(C)N(CCNCc1nnc(-c2ccccc2)o1)C(C)C | inconclusive: 3.16 µM [activator, single point] | – |
| N#CCC(=O)NNC(=S)NC(=O)C(c1ccccc1)c1ccccc1 | inactive | – |
| CN(Cc1ccccc1)c1ncc(C=O)s1 | inconclusive: 28.2 µM [activator, single point] | – |
| CCCC(=O)N1c2ccccc2C(=C2SC(C(=O)OC)=C(C(=O)OC)S2)C(=S)C1(C)C | inactive | – |
| CCOC(=O)c1[nH]c2c(c1C)C(=O)CC(c1ccco1)C2 (stereo not given) | inconclusive: 0.501 µM [activator, full curve, poor fit] | – |
| CC(=O)N1C(=O)/C(=C2\SC(=S)N(c3c(C)n(C)n(-c4ccccc4)c3=O)C2=O)c2ccccc21 | inactive | – |
| COc1ccc(C2=Nc3ccc(C)cc3C(c3ccccc3)N2CC(=O)NN)cc1 (stereo not given) | inconclusive: 1.78 µM [activator, full curve, poor fit] | – |
